Measurements as given in PubChem BioAssay AID1439 (NMMLSC, 2008).
The whole screen tested about 220,000 compounds, of which about 770 (0.35%) were called active. Inconclusive results, whose numbers are uncertain, are shown with a selection of clear calls. No stated cut-off is given here; in the data, active means binding response below about 49% or above about 150%; inconclusive means no clear call, values can overlap the other calls; inactive means in between.

Amino acid sequences for entries named in this document (tags omitted).
UniProt P09471, whole entry, looked up: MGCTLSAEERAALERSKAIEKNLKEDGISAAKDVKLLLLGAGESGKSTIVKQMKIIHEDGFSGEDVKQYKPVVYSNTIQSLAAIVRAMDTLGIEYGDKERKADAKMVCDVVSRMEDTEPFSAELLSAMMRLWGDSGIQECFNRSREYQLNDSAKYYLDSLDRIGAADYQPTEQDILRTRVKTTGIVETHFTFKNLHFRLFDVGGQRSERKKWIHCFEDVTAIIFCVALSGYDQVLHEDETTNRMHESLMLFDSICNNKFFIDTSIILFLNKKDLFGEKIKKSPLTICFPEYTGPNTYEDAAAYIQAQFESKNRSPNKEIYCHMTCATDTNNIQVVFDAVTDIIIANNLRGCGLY

Target: Guanine nucleotide-binding protein G(o) subunit alpha (Homo sapiens) (UniProt P09471)
Experiment: RGS7-Galphao binding modulators, primary screen, biochemical, multiplexed bead flow cytometry (AID 1439);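 further: fluorescent Galphao held in activated GDP-AlF4 state binding bead-coupled RGS7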
Settings: at 10 µM, actives lie on both sides

Compound | binding response (% of control)
COC(=O)CCCC1=CC2=CC(=O)C(C)(OC(=O)c3cccs3)C(=O)C2=CN1CCc1ccccn1 (configuration not stated) | inconclusive: 102%
COc1ccc(/C=C/C(=O)O)cc1Cl | inconclusive: 102%
C/C(=N\N=C1\NC(=O)C(CC(=O)O)S1)c1ccccn1 (configuration not stated) | inconclusive: 85.5%
c1coc(-c2nc3c([nH]2)CCc2nonc2-3)c1 | inactive: 101%
CCn1c(SCc2nc3ccccc3c(=O)[nH]2)nc2ccccc21 | inconclusive: 112%
Cc1cccc(NC(=O)c2cc(Cl)nc3ccccc23)n1 | inconclusive: 99.2%
CCOc1ccccc1N1CCN(C(=S)NCc2ccc(Cl)cc2)CC1 | inconclusive: 101%
O=C(C(=O)N1CCCc2ccccc21)N1CCCc2ccccc21 | inactive: 103%
Cc1cc2c(NS(=O)(=O)c3ccc(F)cc3)cccc2nn1 | inconclusive: -31.4%
O=C(Cn1nnc(-c2cc(C(F)(F)F)cc(C(F)(F)F)c2)n1)NNC(=S)Nc1ccc(Cl)cc1 | inconclusive: 50%
COc1ccc(/C=C/C(=O)c2cc3c(cc2N)OCO3)cc1 | inactive: 95.1%
COc1ccc(N(CC(=O)NCc2ccc3c(c2)OCO3)C(=O)CCC(=O)Nc2ccccn2)cc1 | inactive: 101%
CC(OC(=O)CCc1nc2ccccc2[nH]c1=O)c1ccccc1 (configuration not stated) | inactive: 103%
Cn1c(=O)c(C(=O)CN2CCCCC2)c(N)n(Cc2ccccc2)c1=O | inconclusive: 84.2%
S=c1[nH]nc(COc2ccccc2)n1Cc1ccccc1 | inactive: 82.4%
Cc1nn(-c2ccccc2)c(Cl)c1/C=N/Nc1nc2ccccc2n1C | inactive: 100%
N#Cc1ccc(C23CC4(C2)[C@H](CN(Cc2ccc(C(F)(F)F)cc2)[C@@H]4c2ccccc2)C3c2ccc(C(F)(F)F)cc2)cc1 (some centres not stated) | inconclusive: 131%
Cc1ccc(NS(=O)(=O)c2cccc(C(=O)NCC(c3cccs3)N(C)C)c2)cc1 (configuration not stated) | inconclusive: 102%
COc1c(O)cnn(-c2ccccc2)c1=O | inconclusive: 106%
COc1ccc(C2c3c(ncn(CCCN4CCOCC4)c3=N)Oc3ccc4ccccc4c32)cc1OC (configuration not stated) | inconclusive: 49.5%
COC(=O)C(Cc1c[nH]c2ccccc12)NC(=O)c1cccs1 (configuration not stated) | inconclusive: 74.3%
O=[N+]([O-])c1ccc(N2CCCCC2)cc1 | inconclusive: 92.1%

Compound | binding response (% of control)
Cc1nn(C)c(=O)c(N)c1-c1cc(-c2ccc(Cl)c(Cl)c2)n[nH]1 | inconclusive: 163%
COc1ccc2nc(NC(=O)c3cccs3)sc2c1 | inconclusive: 64.1%
COCCOC(=O)/C(=C\c1cc(C(C)(C)C)c(O)c(C(C)(C)C)c1)C(C)=O | inconclusive: -223%
CCCC(=O)Nc1cc(C)c2c(=O)oc3ccccc3c2n1 | inconclusive: 111%
Cn1cccc1/C=N/n1c(-c2ccco2)n[nH]c1=S | inconclusive: 102%
Cc1cc(C)c(NC(=O)CSc2nc3[nH]ncc3c(=O)[nH]2)c(C)c1 | inconclusive: 106%
C=CCn1c(Cc2c[nH]c3ccccc23)nnc1SCC(=O)NCc1ccccc1 | active: 41.6%
Cc1nc2c(cnn2-c2ccc(Cl)cc2)c(=O)n1-c1ccc(N2CCC(C)CC2)cc1 | active: 171% [activator]
COc1ccc(Nc2nc(NCc3ccco3)nc(N3CCOCC3)n2)cc1 | inconclusive: 119%
O=C(O)c1ccccc1SC1CC(=O)N(c2cccc3ccccc23)C1=O (configuration not stated) | inconclusive: 113%
COc1cccc(Oc2cn[nH]c2-c2ccc(OC)cc2O)c1 | active: 281% [activator]
O=C(CSc1nc2ccccc2[nH]1)NCc1ccc(F)cc1 | inactive: 102%
O=S(=O)(c1ccc(Cl)cc1)N1CCC2(CC1)CO2 | inactive: 102%
C/C(=N/NC(=O)CNC(=O)C(c1ccccc1)c1ccccc1)c1ccco1 | inconclusive: 66.5%
Cc1c(NC(=O)CN2CCCC(C)C2)ccc2nsnc12 (configuration not stated) | inactive: 101%
COc1ccc(CNCCC(c2ccc(OC(C)C)cc2)C(C)C)cc1OC (configuration not stated) | inactive: 120%
Cc1ncsc1CCOC(=O)C1C2CC3CC(C2)CC1C3 (configuration not stated) | inactive: 93.7%
Cc1c(Br)cc(-c2nnco2)cc1Br | inactive: 97.8%
COc1cc(C(=O)N2CCN(C(=O)c3ccco3)CC2)c([N+](=O)[O-])cc1OC | inconclusive: 98.8%
CC(C)=N/N=C1\NC(=O)C(C)S1 (configuration not stated) | inconclusive: 154%
CCOC(=O)C(NC(=O)CC)(Nc1ccc(S(N)(=O)=O)cc1)C(F)(F)F (configuration not stated) | inconclusive: 100%
O=S(=O)(O)c1nc2ccccc2n1Cc1cccc2ccccc12 | inconclusive: 109%

Compound | binding response (% of control)
CCOc1ccc(CCNC(=O)COC(=O)Cn2cnc3ccccc3c2=O)cc1OCC | inconclusive: 93.6%
CC(=O)NC(=S)Nc1ccc(NC(=S)NC(=O)/C=C/c2ccco2)cc1 | inconclusive: 73.8%
Cc1ccc2nc(C)c3c(c2c1)N(c1ccccc1)CC3 | inconclusive: -49.8%
COC(=O)CCC(=O)OC1(C)C(=O)C=C2C=C(C3CC3)N(CC(C)C)C=C2C1=O (configuration not stated) | inconclusive: 104%
CCCCNC(=O)CN1C(=O)NC(CCc2ccccc2)C1=O (configuration not stated) | inconclusive: 115%
N#C/C(=C(/O)c1ccc([N+](=O)[O-])cc1)c1nc2ccccc2[nH]1 | inconclusive: 104%
S=C(NCc1ccccc1)N1CCN(C2CCCCC2)CC1 | inconclusive: 66.1%
COc1ccc(NC(=O)CN(c2ccccc2)S(=O)(=O)c2ccccc2)c(OC)c1 | inconclusive: 157%
CCOC(=O)C1CCCN(C(=O)c2cc(S(=O)(=O)N3CCCCC3)ccc2C)C1 (configuration not stated) | inconclusive: 124%
O=C(COC(=O)c1cncc(Br)c1)Nc1nc(-c2ccc(F)cc2)cs1 | inconclusive: 57.8%
O=C(O)CCN1C(=O)S/C(=C\c2cccnc2)C1=O | inconclusive: 74.9%
CC(/C=N/Nc1nc(C)cc(C)n1)=C\c1ccc(C(C)C)cc1 | inactive: 101%
CCCOc1ccc(N2C(=O)CC(N(CCOC34CC5CC(CC(C5)C3)C4)C(C)=O)C2=O)cc1 (configuration not stated) | inactive: 98.3%
CC(NC(=O)Nc1ccccc1F)C(C)(C)C (configuration not stated) | inactive: 101%
COC(=O)c1cnc(Oc2ccc(NC(=O)NC(=O)c3c(F)cccc3F)cc2)cc1C(F)(F)F | inconclusive: 93.8%
CC(=O)C1C(c2cccc(F)c2)c2c(n[nH]c2C)CC1(C)O (configuration not stated) | inconclusive: 98.2%
N#C/C(=C\c1ccc(N2CCOCC2)o1)C(=O)NCCc1ccccc1 | inactive: 93.4%
Cc1nnc(SCc2ccccn2)n(N)c1=O | inactive: 97.6%
COC(=O)Cn1c(=O)c2c(n(Cc3ccccc3)c1=O)N/C(=C/c1ccc(Br)cc1)C2=O | inconclusive: 99.8%
O=S(=O)(Nc1cccc(-c2nc3cccnc3s2)c1)c1cccs1 | inconclusive: 512%
NNc1nc2ccc(Cl)cc2s1 | inactive: 100%
COc1ccc(C2Nc3ccccc3C(=O)N2Cc2ccccc2)cc1CN1CCOCC1 (configuration not stated) | inconclusive: 106%

Gathered by group, the compounds so far containing a tert-butyl group
Compound | binding response (% of control)
COCCOC(=O)/C(=C\c1cc(C(C)(C)C)c(O)c(C(C)(C)C)c1)C(C)=O | inconclusive: -223%
CC(NC(=O)Nc1ccccc1F)C(C)(C)C (configuration not stated) | inactive: 101%

Going on with the list.

Compound | binding response (% of control)
CO[C@H]1C[C@@H]2CC[C@@H](C)[C@@](O)(O2)C(=O)C(=O)N2CCCC[C@H]2C(=O)O[C@H]([C@H](C)C[C@@H]2CC[C@@H](O)[C@H](OC)C2)CC(=O)[C@H](C)C=C(C)[C@@H](O)[C@@H](OC)C(=O)[C@H](C)C[C@H](C)C=CC=CC=C1C | inconclusive: 143%
O=C(Nc1cccc(S(=O)(=O)Nc2ccc(Cl)cc2)c1)c1ccc[n+]([O-])c1 | inconclusive: 114%
O=c1[nH]c(Nc2ccc3c(c2)OCCO3)nnc1Cc1ccc(Cl)cc1 | inconclusive: 84%
CCCCNc1ccc(C(CC(N)=O)NC(=O)c2ccccc2)cc1[N+](=O)[O-] (configuration not stated) | inconclusive: 112%
CCOc1ncccc1C(=O)OCC(=O)c1cccc(Br)c1 | inconclusive: 47.4%
O=C(Cc1n[nH]c(=O)c2ccccc12)Nc1cccc(S(=O)(=O)N2CCCC2)c1 | inconclusive: 1.28%
COc1ccc(N2CC(O)=C(c3nc(-c4ccc(Cl)cc4)cs3)C2=N)cc1 | inconclusive: 96%
O=C(Nc1nc(-c2ccccn2)cs1)C12CC3CC(CC(O)(C3)C1)C2 | inconclusive: 108%
CCC1CCC(c2nnc(-c3ccc(Br)cc3)o2)CC1 (configuration not stated) | inactive: 85.7%
COc1cccc(-c2nn(-c3ccccc3)cc2CN(C)Cc2c(C)nc3ccccn23)c1 | inactive: 97.4%
COc1ccc2nc(SCC(=O)Nc3ccccc3OC)[nH]c2c1 | inconclusive: 115%
CC1CCCC(C)N1/N=C/C=C/c1ccccc1[N+](=O)[O-] (configuration not stated) | inactive: 103%
COc1ccc(CCNC(=O)/C(=C/c2cccnc2)NC(=O)c2ccccc2)cc1 | inactive: 108%
O=C(COC(=O)CNC(=O)c1ccc(Br)cc1)NCCC1=CCCCC1 | inconclusive: 85.8%
CCCCn1c(=O)[nH]c(=O)c2c(C(=O)OCC)cc(-c3ccc(OC(F)F)cc3)nc21 | inactive: 103%
Cc1ccc2c(N)c(C(=O)c3ccccc3)sc2n1 | inconclusive: -292%
CC(C)n1cnc2c(Nc3cccc(Cl)c3)nc(N(CCO)CCCO)nc21 | inconclusive: 93.8%
CCCCN1C(=O)C(=Nc2cccc3cnccc23)c2ccccc21 | inconclusive: 85%
COc1ccc(CCNC(=O)CN(c2ccccc2OC)S(C)(=O)=O)cc1OC | inactive: 103%
C/C(CC(=O)Nc1ccc2c(c1)OCO2)=N\NC(=O)C(c1ccccc1)c1ccccc1 | inactive: 85.6%
Cc1nc(SCC(=O)NC(=O)NC(C)(C)C)nc(C)c1C | inconclusive: 65.7%

Reprinted at random: three records from the list
Compound | binding response (% of control)
CC(C)n1cnc2c(Nc3cccc(Cl)c3)nc(N(CCO)CCCO)nc21 | inconclusive: 93.8%
CCCCNc1ccc(C(CC(N)=O)NC(=O)c2ccccc2)cc1[N+](=O)[O-] (configuration not stated) | inconclusive: 112%
COc1ccc2nc(SCC(=O)Nc3ccccc3OC)[nH]c2c1 | inconclusive: 115%
